Test results taken from patent US20180334447A1, “2,3,4,5-TETRAHYDROPYRIDIN-6-AMINE DERIVATIVES” (JANSSEN PHARMACEUTICA NV, priority 2015, published 2018).
At least one structure is not confirmed: it was looked up by name or label, or the drawing left a doubt.

Tested on: Abeta 1-37, Abeta 1-38, Abeta 1-40 and Abeta 1-42 in CSF
Test: Pharmacology in the Beagle dog: beta-amyloid profile in cerebrospinal fluid (CSF) after a single dose
Format: in vivo
Settings: single dose 0.02 mg/kg
Method: Test compounds were tested to evaluate the effect on the beta-amyloid profile in cerebrospinal fluid (CSF) of dogs after a single dose, in combination with pharmacokinetic (PK) follow up and limited safety evaluation.
For each of compound 20, 21, 22 or 41, four beagle dogs (2 males, 2 females) were dosed with vehicle (1 ml/kg of an aqueous solution of 20% cyclodextrin) and 12 beagle dogs (2 males and 2 females per dosage group) were dosed with test compounds as follows:
In the case of compounds 39, 33 and 31, two beagle dogs (1 male, 1 female) were dosed with vehicle (1 ml/kg of an aqueous solution of 20% cyclodextrin) and 4 beagle dogs (2 males and 2 females) were dosed with test compound […] (0.31 mg/kg in 0.31 mg/ml of an aqueous 20% cyclodextrin solution) on an empty stomach.
Eight hours after dosing the animals got access to their regular meal for 30 minutes. Blood was taken for PK follow up (0.5, 1, 2, 4, 8, 25 and 49 hours) and serum samples for biochemistry were taken before and at 8 and 25 h after dosing. The CSF samples were used for measurement of Abeta 1-37, Abeta 1-38, Abeta 1-40 and Abeta 1-42.

CC1(S(C)(=O)=O)CCC(CF)(c2cc(NC(=O)c3ccc(C#N)cn3)ccc2F)N=C1N (stereo not shown) [Compound 22]
% Decrease in Abeta 1-42 at 8 h post dosing compared to own baseline: No effects observed
